The target in this assay is HA-tagged TRIM50 (tripartite motif-containing 50) (human) (UniProt Q86XT4). As to the kind of experiment: co-IP; lysates of BxPC-3 and Patu8988 cells transfected with HA-tagged TRIM50 (48 hours); anti-HA (2 ug) 30 minutes at RT, Protein-A/G magnetic beads 30 minutes at RT, washed three times with TBS-T; anti-IgG as negative control; blot with a Snail1 antibody.

Chains of the proteins cited; added tags and fusions are not shown.
UniProt Q86XT4: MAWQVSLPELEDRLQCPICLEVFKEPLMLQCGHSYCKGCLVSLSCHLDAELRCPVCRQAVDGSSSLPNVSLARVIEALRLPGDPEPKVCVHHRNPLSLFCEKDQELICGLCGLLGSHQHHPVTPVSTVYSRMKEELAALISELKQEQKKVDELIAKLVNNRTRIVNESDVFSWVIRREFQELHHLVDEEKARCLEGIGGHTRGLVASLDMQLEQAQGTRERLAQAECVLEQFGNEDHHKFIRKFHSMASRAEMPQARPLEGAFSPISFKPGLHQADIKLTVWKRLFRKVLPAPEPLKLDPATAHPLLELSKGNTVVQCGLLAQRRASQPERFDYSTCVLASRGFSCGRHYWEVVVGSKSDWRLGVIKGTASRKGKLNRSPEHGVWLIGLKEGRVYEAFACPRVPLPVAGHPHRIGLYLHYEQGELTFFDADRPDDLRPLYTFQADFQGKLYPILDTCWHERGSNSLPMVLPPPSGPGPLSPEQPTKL
UniProt O95863: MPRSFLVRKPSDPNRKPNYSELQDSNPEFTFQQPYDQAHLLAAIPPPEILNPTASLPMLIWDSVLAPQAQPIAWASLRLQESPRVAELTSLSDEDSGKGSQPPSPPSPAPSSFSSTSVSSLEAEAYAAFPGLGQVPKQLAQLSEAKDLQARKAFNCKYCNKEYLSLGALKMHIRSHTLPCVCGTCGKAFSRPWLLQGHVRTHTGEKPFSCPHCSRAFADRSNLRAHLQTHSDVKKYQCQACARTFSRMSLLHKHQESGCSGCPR

The results in this text go back to PMC8458909.

These are yes or no findings as the source states them, for the method shown. In cells and extracts the contact can be indirect. Some results given as binding are weak or reduced against the parent protein; the word gives no strength.

“Snail family transcriptional repressor 1 (Snail1) (from UniProt O95863 1-264)”: the binding result was “binds”.
